PubChem BioAssay AID686943 | Drosophila RNAi Screening Center | 2013

Screen: 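Fly genes whose loss alters ERK activation after insulin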 (primary screen)
System: Drosophila S2R+ haemocyte-like cells expressing YFP-tagged ERK (Rolled)
Knock-down reagent: long dsRNA against Drosophila genes
Challenge: insulin stimulation versus unstimulated cells; dose and duration not given
Read-out: 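Antibody staining for doubly phosphorylated ERK divided by ERK-YFP signal, as plate z-scores, in insulin-treated and untreated cells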
Reading the numbers: replicate 1, z-score of dpERK with insulin and replicate 2, z-score of dpERK with insulin: higher = more active ERK per ERK-YFP after insulin; replicate 1, z-score of dpERK under basal conditions: higher = more basal active ERK per ERK-YFP
The deposit covers about 23,000 reagents; this is an unselected part of those that have a named target and a result. 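Extra replicates exist only for a retested subset of genes; insulin dose and duration not given; both raised and lowered dpERK matter.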 Reagents against one gene are numbered here. A plus sign joins genes that one reagent is predicted to hit. Further read-outs or replicates are left out here. Not stated in the record: the amount of reagent, the time to read-out.

Target gene,reagent,"replicate 1, z-score of dpERK with insulin","replicate 2, z-score of dpERK with insulin","replicate 1, z-score of dpERK under basal conditions"
CG14562 (GeneID 40439),1,-0.1,0.32,-0.42
jus (GeneID 43453),1,-1.01,-4.1,-2.11
jus (GeneID 43453),2,2.52,-0.74,1.77
Hml (GeneID 39529),1,-0.15,0.24,0.07
Serinc (GeneID 39827),1,-0.03,-0.86,0.54
CG43191 (GeneID 12798408),1,0.19,0.19,0.68
dmrt93B (GeneID 42494),1,0.58,0,0
TfIIA-L (GeneID 43284),1,0.47,0.71,-0.54
RpL29 (GeneID 37430),1,-1.02,-0.49,-0.22
CG14877 (GeneID 41929),1,0.08,0.53,-0.24
DhpD (GeneID 40528),1,-0.02,0.11,0.38
TfIIFalpha (GeneID 40790),1,2.98,3.84,-0.16
zen (GeneID 40828),1,-1.07,-1.04,-0.11
Cyp12c1 (GeneID 40037),1,-0.52,-0.41,-0.44
CG15422 (GeneID 33615),1,1.62,0.4,0.35
Cad87A (GeneID 41441),1,1.15,0.45,0.02
Dci (GeneID 38100),1,-0.64,-0.58,1.56
Jon99Fii + Jon99Cii + Jon99Ciii + 1 more,1,1.02,-0.17,0.02
CG12024 (GeneID 38243),1,1.69,1.78,0.09
asRNA:CR33945 (GeneID 3772292),1,0.69,1.38,-1.62
lute (GeneID 42089),1,-0.92,0.3,1.33
lute (GeneID 42089),2,0.09,-0.01,-0.48
CG42792 (GeneID 10178946),1,1.17,0.44,-0.66
GABA-B-R2 (GeneID 42561),1,0.3,-0.26,-0.53

Entries above whose target name begins with L or l (2):
Target gene,reagent,"replicate 1, z-score of dpERK with insulin","replicate 2, z-score of dpERK with insulin","replicate 1, z-score of dpERK under basal conditions"
lute (GeneID 42089),1,-0.92,0.3,1.33
lute (GeneID 42089),2,0.09,-0.01,-0.48

The results go on.
Target gene,reagent,"replicate 1, z-score of dpERK with insulin","replicate 2, z-score of dpERK with insulin","replicate 1, z-score of dpERK under basal conditions"
pippin (GeneID 37770),1,0.29,0.6,-0.63
CG31661 (GeneID 33330),1,-0.68,-0.62,0
CG31642 (GeneID 326149),1,0.55,0.59,0.33
CG5245 (GeneID 41530),1,0.41,0.46,-0.19
Inx3 (GeneID 44266),1,1.72,1.53,-0.12
CG5466 (GeneID 42444),1,-3.54,-3.51,-1.75
Gfat2 (GeneID 43373),1,0.33,-0.59,-0.2
gol (GeneID 38006),1,-0.81,-0.14,-0.8
Nf1 (GeneID 43149),1,0.48,1.04,2.06
spi (GeneID 35253),1,-0.38,0.62,-0.24
Ypel (GeneID 31949),1,0.08,0.24,-0.51
ms(3)76Cc (GeneID 40142),1,1.18,0.7,0.32
ms(3)76Cc (GeneID 40142),2,-0.43,-0.11,-0.45
CG16736 (GeneID 41101),1,0.83,0.28,0.95
Hk (GeneID 31955),1,-5.07,-3.85,0.06
Hk (GeneID 31955),2,-2.41,-0.02,-1.49
Hk (GeneID 31955),3,-1.58,-2.39,-0.78
Hk (GeneID 31955),4,-2.55,-2.56,-0.16
